Data published in the supplement of paper PMC7125110.
± gives the standard error. Many entries were measured with a wide error.

B1: glmS ribozyme (parent)
chain: AUAAAAGCGCCAGAACUACAGAAAUGUAGUUGACGAGGAGGAGGUUUAUCGAAUUUUCGGCGGAUGCCUCCAAA

Variants of: B1
Test: self-cleavage kobs at 40 uM GlcN6P; higher = faster cleavage; RNA array
Conditions: with glucosamine-6-phosphate
How it was run: (§1)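 A hybridised Cy3 probe tracked barcoded ribozyme variants, transcribed in situ by E. coli RNA polymerase on sequenced MiSeq chips, at 37 °C. The variants received 40 μM to 10 mM glucosamine-6-phosphate in HEPES/KCl/Mg(OAc)2 buffer. kobs came from decay fits and kcat and KM from weighted Michaelis–Menten fits.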

Variant | self-cleavage kobs at 40 uM GlcN6P [s⁻¹]
A14U C34U C68G | 3.71e-05 ± 2.2e-05
G32U G62U U69A | 3.18e-05 ± 2.9e-05
G29C C67A C71U | 3.55e-05 ± 2.1e-05
U30A U56C | 1.8e-05 ± 1.6e-05
C11G G38A U57A C70G | 2.82e-05 ± 2.1e-05
A15U C70G | 1.58e-05 ± 1.5e-05
C16U C58G C68G | 4.01e-05 ± 2.3e-05
C16U U31G C70A | 3.74e-05 ± 2.9e-05
A12C U69G | 2.57e-05 ± 2.1e-05
C8A G29A C50G G66A C70G | 2.7e-05 ± 2.3e-05
U57G A64U C67A C68U | 2.72e-05 ± 2e-05
C11U A15G C58G C68U | 2.56e-05 ± 1.8e-05
G29U U54A C58G C67G | 2.21e-05 ± 1.9e-05
U31G A33G U46G A52G U57C C67G | 2.32e-05 ± 2.2e-05
C8A G32A A33U U54G C70G | 3.76e-05 ± 2e-05

Variants of: B1
Test: KM; higher = weaker cofactor use; RNA array
Conditions: with glucosamine-6-phosphate
How it was run: as §1

Variant | KM [µM]
A6C C68U | 534 ± 140
G13U A15C U54C | 463 ± 330
U31A A39U | 3370 ± 1000
U47A A53G | 1170 ± 880
U47A A53C | 2450 ± 2000
C16U U54C | 732 ± 590
A15G G43A | 2300 ± 940
C8U C61A | 64.2 ± 61
A48G C70A | 631 ± 490
U30A U56C | 14900 ± 6300
A12C U49G | 1730 ± 210
A6G U55G | 2390 ± 350
C58A C71U | 3890 ± 1200
A14U C68U | 3310 ± 1700
A12U C71G | 391 ± 290
U46G A52U | 12000 ± 1400
A12G A14U C58A G66C | 17900 ± 8100
G40U | 5200 ± 3700
G40C | 846 ± 520
A14G A64G U65A | 725 ± 390
G32A A52G | 1760 ± 480
A39G A48U | 5000 ± 1200
A14U G40A | 1500 ± 450
A39U U45G | 2650 ± 300

Variant | KM [µM]
U47C U69A | 1890 ± 1300
G13C U31C G32U U65G C67U | 3040 ± 640
C50A U55G | 754 ± 480
U30A C58U | 2130 ± 1600
G32A C58A C68U | 6330 ± 3300
C34A A36C U45A | 2250 ± 2200
A12C G66U | 1990 ± 990
A53U G59A | 1320 ± 870
A42G C68G | 429 ± 410
G41A C67A | 51300 ± 40000
C10U A53U | 4460 ± 3100
G26A | 332 ± 180
U31C G41C | 7090 ± 5200
G13A A14G | 3430 ± 1000
A12C U69G | 40.2 ± 35
C16A G51A | 632 ± 220
U30C U56G | 2110 ± 1100
A15U A53U | 2950 ± 940
C58A C67U | 1370 ± 290
A12U A39U | 386 ± 240
C16U U45A | 744 ± 540
U56G C67A | 674 ± 450
C11U U31G | 4430 ± 2800
A39G G40C | 605 ± 360

Already shown: an excerpt of the list.
Variant | KM [µM]
A12U C71G | 391 ± 290
U46G A52U | 12000 ± 1400
A12G A14U C58A G66C | 17900 ± 8100
G40U | 5200 ± 3700
G40C | 846 ± 520

Variants of: B1
Test: self-cleavage kobs at 640 uM GlcN6P; higher = faster cleavage; RNA array
Conditions: with glucosamine-6-phosphate
How it was run: as §1

Variant | self-cleavage kobs at 640 uM GlcN6P [s⁻¹]
A6C C68U | 2.26e-05 ± 1.4e-05
G13U A15C U54C | 6.27e-05 ± 4.3e-05
U57G A64U C67A C68U | 0.000101 ± 6.1e-05

Variants of: B1
Test: self-cleavage kobs at 10000 uM GlcN6P; higher = faster cleavage; RNA array
Conditions: with glucosamine-6-phosphate
How it was run: as §1

Variant | self-cleavage kobs at 10000 uM GlcN6P [s⁻¹]
G32U G62U U69A | 2.79e-05 ± 1.6e-05
U46G C50G C71A | 1.46e-05 ± 1.4e-05
G40C | 0.01 ± 0.009
C50A U55G | 2.17e-05 ± 1.2e-05
U30A C58U | 1.48e-05 ± 8.7e-06
U31C G41C | 2.88e-05 ± 1.7e-05
U31G A33G U46G A52G U57C C67G | 3.64e-05 ± 2e-05

Variants of: B1
Test: kcat; higher = faster cleavage; RNA array
Conditions: with glucosamine-6-phosphate
How it was run: as §1

Variant | kcat [s⁻¹]
A15U G37C C70G | 2.75e-05 ± 1.1e-05
U47A A53G | 0.0188 ± 0.011
U47A A53C | 0.00699 ± 0.0045
C16U U54C | 0.0104 ± 0.0055
U46G C50G C71A | 2.29e-05 ± 1.7e-05
G40U | 0.0166 ± 0.01
G40C | 0.00326 ± 0.0017
A39G A48U | 0.00118 ± 0.00016
U49A C68A | 1.25e-05 ± 6e-06
G41A C67A | 0.000258 ± 0.00017
A53U U69G | 6.8e-05 ± 1.2e-05
U57G A64U C67A C68U | 9.53e-05 ± 7.2e-05
C58A C67U | 0.000215 ± 1.7e-05
A39G G40C | 9.61e-05 ± 1.3e-05

Variants of: B1
Test: self-cleavage kobs at 2500 uM GlcN6P; higher = faster cleavage; RNA array
Conditions: with glucosamine-6-phosphate
How it was run: as §1

Variant | self-cleavage kobs at 2500 uM GlcN6P [s⁻¹]
A15U G37C C70G | 3.84e-05 ± 2e-05
U46G C50G C71A | 1.84e-05 ± 1.7e-05
A12G A14U C58A G66C | 2.91e-05 ± 2.4e-05
A14U G40A | 0.000652 ± 0.00039
G13C U31C G32U U65G C67U | 3.2e-05 ± 1.8e-05
U31C G41C | 1.22e-05 ± 1e-05

Variants of: B1
Test: self-cleavage kobs at 160 uM GlcN6P; higher = faster cleavage; RNA array
Conditions: with glucosamine-6-phosphate
How it was run: as §1

Variant | self-cleavage kobs at 160 uM GlcN6P [s⁻¹]
A6G U55G | 2.67e-05 ± 2.3e-05
A39G A48U | 2.25e-05 ± 1.8e-05
A42G C68G | 3.81e-05 ± 2e-05
U30C U56G | 2.74e-05 ± 2e-05
C58A C67U | 2.03e-05 ± 1.7e-05
C16U U45A | 0.00348 ± 0.0018
